This passage reports binding result and Kd results from patent publication US20120271039.

By UniProt entry, the sequences of proteins in these tests, tags left out. Residues count along the entry.
UniProt P00740, 47-461: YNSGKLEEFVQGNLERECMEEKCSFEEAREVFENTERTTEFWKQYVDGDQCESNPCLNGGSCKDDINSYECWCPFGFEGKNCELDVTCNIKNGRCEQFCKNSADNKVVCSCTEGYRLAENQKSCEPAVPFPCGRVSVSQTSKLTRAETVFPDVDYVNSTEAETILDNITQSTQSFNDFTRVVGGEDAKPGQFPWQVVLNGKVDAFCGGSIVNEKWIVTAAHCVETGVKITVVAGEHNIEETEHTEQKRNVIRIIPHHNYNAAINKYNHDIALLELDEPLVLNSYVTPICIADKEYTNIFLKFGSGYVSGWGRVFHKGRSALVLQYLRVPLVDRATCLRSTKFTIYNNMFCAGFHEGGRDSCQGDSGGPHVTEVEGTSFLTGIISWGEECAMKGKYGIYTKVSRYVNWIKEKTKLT

A word on the Kd: it is the equilibrium constant for the complex coming apart. High values mean a looser complex, low ones a tighter complex.

For part of these data: No signal at the amounts used counts as a negative. For part of these data: The exact form of at least one protein or probe is not confirmed. For part of these data: Protein sequences can lack the tags named with them.

For data set [1], the target named is Coagulation Factor IX (recombinant) (Homo sapiens) (UniProt P00740). In words: SPR. To be noted: purified recombinant protein, single-stranded DNA.
The target of data set [2] is Coagulation Factor IX (plasma) (Homo sapiens) (UniProt P00740). In words: binding assay. The conditions noted are these: biotin-PEG(C18) spacer when immobilized on column; affinity chromatography; 40% of proteins in eluate; CaCl2, EDTA elution; purified native protein; single-stranded DNA; variant of Mapt-1.2-CS.
Data set [3] relates to Des-Gla Factor VII and poorly glycosylated forms (Homo sapiens). In words: binding assay. To be noted: not retained on affinity support, purified native protein, protein details: inactive forms present in plasma FVII concentrate, single-stranded DNA.
Data set [4] has as its target T1, Coagulation Factor VII (plasma) (Homo sapiens) (UniProt P08709).
T1 sequence (looked up, limits assumed): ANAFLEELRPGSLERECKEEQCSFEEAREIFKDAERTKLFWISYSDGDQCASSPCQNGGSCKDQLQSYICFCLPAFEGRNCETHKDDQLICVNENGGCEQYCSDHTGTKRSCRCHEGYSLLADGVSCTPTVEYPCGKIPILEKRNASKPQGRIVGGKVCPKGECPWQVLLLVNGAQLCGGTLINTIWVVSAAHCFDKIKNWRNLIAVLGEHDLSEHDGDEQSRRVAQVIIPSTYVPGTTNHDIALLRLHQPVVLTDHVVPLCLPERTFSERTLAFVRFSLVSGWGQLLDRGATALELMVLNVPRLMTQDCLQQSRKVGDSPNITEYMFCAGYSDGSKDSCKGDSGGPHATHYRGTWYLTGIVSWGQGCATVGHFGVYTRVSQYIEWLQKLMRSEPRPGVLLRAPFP
In words: binding assay. To be noted: biotin-PEG(C18) spacer when immobilized on column; affinity chromatography; 78% of proteins in eluate; text of example prints SEQ ID 37 for Mapt-2.2-CS; purified native protein; single-stranded DNA.

The target in data set [5] is T1, Coagulation Factor VII (plasma) (Homo sapiens). In words: SPR. The conditions noted are these: 5' biotin, purified native protein, label: biotin, single-stranded DNA; for Kd: 5x PEG(C18) spacer.
The target in data set [6] is Coagulation Factor IX, transgenic, poorly gamma-carboxylated (FIX-Tg) (Homo sapiens) (UniProt P00740). In words: SPR. The conditions noted are these: 5' biotin, PEG(C18) spacer for SPR; no spacer on column in examples 8-A and 9; incompletely gamma-carboxylated FIX; 50 mM Tris, 50 mM NaCl, 10 mM CaCl2, 4 mM MgCl2, pH 7.4; purified recombinant protein; label: biotin; single-stranded DNA.

Data set [7] has as its target Coagulation Factor IX, transgenic, Mapt-1 eluted active fraction (Homo sapiens) (UniProt P00740). In words: SPR. To be noted: 5' biotin, PEG(C18) spacer for SPR; no spacer on column in examples 8-A and 9; active fraction eluted from Mapt-1 column; 50 mM Tris, 10 mM CaCl2, pH 7.4; purified recombinant protein; label: biotin; single-stranded DNA.
Data set [8] has as its target Coagulation Factor IX (plasma) (Homo sapiens) (UniProt P00740). Nature of the data set: SPR. To be noted: 5' biotin, PEG(C18) spacer for SPR; no spacer on column in examples 8-A and 9; also retained on Mapt-1 column, eluted by 10 mM EDTA; purified native protein; label: biotin; single-stranded DNA.
Data set [9] deals with Coagulation Factor X (plasma) (Homo sapiens). Nature of the data set: SPR. To be noted: 5' biotin, PEG(C18) spacer for SPR; no spacer on column in examples 8-A and 9; 50 mM Tris, 50 mM NaCl, 10 mM CaCl2, 4 mM MgCl2, pH 7.4; purified native protein; protein details: plasma-derived; label: biotin; single-stranded DNA.
The mark [10] stands for this setting: FIX immobilized, Ca/Mg buffer, affinity group not assigned in text.

Turning to “CCACGACCTCGCACATGACTTGAAGTAAAACGCGAATTAC [Mapt-1.2-CSO]”, the binding result is “binds” in data set [1] (biotin-PEG(C18) spacer when immobilized on column, FIX immobilized, significantly higher affinity than Mapt-1.2-CS, 50 mM Tris, 10 mM CaCl2, 4 mM MgCl2, pH 7.5, variant of Mapt-1.2-CS) and “binds” in [2].
On to “CCGCACACCACGCGCATGACCCCGCGCACACGACTTGAAGTAGC [Mapt-2-CS]”, for which the binding result in data set [3] (label: biotin) is recorded as “no binding”.
As for “CCGCACGCTACGCGCATGAACCCGCGCACACGACTTGAAGTAGC [Mapt-2.2-CS]”, the results for the binding result in [4] and in data set [3] (biotin-PEG(C18) spacer when immobilized on column) were “binds” and “no binding”, respectively.
Regarding “CGCACAAGACTTGAAGTTAAACGCGAATTACAAACCCAGCCCCC [core sequence SEQ ID 11]”, the binding result in [1] (setting [10]) was “binds”.
With “CGCACAATGACTTGAAGTGAAACGCGAATAACAAACCAGGCCCC [core sequence SEQ ID 28]”, in data set [1] (setting [10]), the binding result is reported as “binds”.
“CGCACACAGCTCGAAGTTAAACGCGAATTACAAACCAGGCCCC [core sequence SEQ ID 34]”: the binding result in data set [1] (setting [10]) is on record as “binds”.
Take “CGCACACGACGTGAAGTTAACGCGAATCACAAACCAAACCCG [core sequence SEQ ID 33]”: in data set [1] (setting [10]), the binding result was “binds”.
With “CGCACACGACTTGAAGTTAAACGCGAACTACAGACCAAGCCCA [core sequence SEQ ID 8]”, in data set [1] (setting [10]), the binding result is on record as “binds”.
As for “CGCACACGACTTGAAGTTAAACGCGAATTACAAACCAGACCCC [core sequence SEQ ID 19]”, the binding result in [1] (setting [10]) is “binds”.
In the case of “CGCACACGACTTGAAGTTAAACGCGAATTACAGACCATGCCCA [core sequence SEQ ID 6]”, the binding result in data set [1] (setting [10]) is on record as “binds”.
On to “CGCACACGACTTGAAGTTAAACGCGAATTACGGACCAATCCCA [core sequence SEQ ID 7]”, for which the binding result in data set [1] (setting [10]) was “binds”.
Take “CGCACACGACTTGAAGTTAACCGCGAATTACAAACCAAACCCA [core sequence SEQ ID 32]”: the binding result in data set [1] (setting [10]) is “binds”.
Regarding “CGCACACGACTTGAAGTTAACGCGAATTACATCCCAGACCCG [core sequence SEQ ID 16]”, the binding result in data set [1] (setting [10]) was “binds”.
Still for that read-out and setting: next, “CGCACATGACTCGAAATAAACGCGAATTACAAACCCAGCCCCC [core sequence SEQ ID 13]”: “binds”.
For “CGCACATGACTCGAAGTTAAACGCGAATTACAAACCAAGCCCA [core sequence SEQ ID 14]”, the binding result in data set [1] (setting [10]) is “binds”.
Regarding “CGCACATGACTTGAAGTAAAACGCGAATTACAGACCAAACCCG [core sequence SEQ ID 31]”, the binding result in data set [1] (setting [10]) is “binds”.
On the same count and under the same terms, as for “CGCACATGACTTGAAGTTAAACGCGAACTACATACCAAGCCCA [core sequence SEQ ID 9]”, the entry is “binds”.
The same measure, in the same setting: next, “CGCACATGACTTGAAGTTAAACGCGAATTACAAACCAAACCCA [core sequence SEQ ID 24]”: “binds”.
Take “CGCACATGACTTGAAGTTAAACGCGAATTACAAACCAAACCCG [core sequence SEQ ID 25]”: the binding result in data set [1] (setting [10]) is “binds”.
As to “CGCACATGACTTGAAGTTAAACGCGAATTACAAACCAGACCCA [core sequence SEQ ID 23]”, the binding result in [1] (setting [10]) is reported as “binds”.
“CGCACATGACTTGAAGTTAAACGCGAATTACAAACCAGACCCC [core sequence SEQ ID 20]”: the binding result in data set [1] (setting [10]) is “binds”.
For the sequence “CGCACATGACTTGAAGTTAAACGCGAATTACAAACCCAGCCCCC [core sequence SEQ ID 10]”, in data set [1] (setting [10]), the binding result is “binds”.
In the case of “CGCACATGACTTGAAGTTAAACGCGAATTACAAACCTAGCCCA [core sequence SEQ ID 15]”, in data set [1] (setting [10]), the binding result was “binds”.
On to “CGCACATGACTTGAAGTTAAACGCGAATTACAGACCAAACCCA [core sequence SEQ ID 29]”, for which the binding result in data set [1] (setting [10]) is “binds”.
With “CGCACATGACTTGAAGTTAAACGCGAATTACAGACCAAACCCC [core sequence SEQ ID 30]”, in data set [1] (setting [10]), the binding result is given as “binds”.
Still for that read-out and setting: as for “CGCACATGACTTGAAGTTAAACGCGAATTACGAACCAGACCCC [core sequence SEQ ID 21]”, the entry is “binds”; as for “CGCACATGACTTGAAGTTAACGCGAATAACAACCCATCCCCCC [core sequence SEQ ID 27]”, “binds”.
As to “CGCACATGACTTGAAGTTAACGCGAATTACAAACCAACCCCC [core sequence SEQ ID 26]”, the binding result in [1] (setting [10]) was “binds”.
For “CGCACATGACTTGAAGTTAACGCGAATTACAACCCAGACCC [core sequence SEQ ID 18]”, the binding result in [1] (setting [10]) is “binds”.
Regarding “CGCACATGACTTGAAGTTAACGCGAATTACAACCCAGACCCG [core sequence SEQ ID 17]”, in data set [1] (setting [10]), the binding result was “binds”.
As to “CGCACATGACTTGAAGTTAACGCGAATTACGAACCAGACCCA [core sequence SEQ ID 22]”, in [1] (setting [10]), the binding result is recorded as “binds”.
For “GGGAGATAGCCACGACCTCCGCACACCACGCGCATGACCCCGCGCACACGACTTGAAGTAGCTCCAGGCTGTGCGAAAGC [Mapt-2]”, the Kd in data set [5] (buffer 1: 50 mM Tris, 50 mM NaCl, 10 mM CaCl2, 4 mM MgCl2, pH 7.5, ka 3.3e3 M-1s-1, kd 4.8e-4 s-1, binding resists 3 M NaCl, eluted by EDTA) stood at 148 nM; in data set [5] (buffer 5: 50 mM Tris, 10 mM CaCl2, pH 7.5, ka 4.7e4 M-1s-1, kd 6e-4 s-1) it was 13 nM.
On to “GGGAGATAGCCACGACCTCGCACATGACTTGAAGTTAAACGCGAATTACAAACCCAGCCCCCTCCAGGCTGTGCGAAAGC [Mapt-1 (Mapt-1-WS)]”, for which the binding result is listed as “no binding” in data set [6]; “binds” in data set [7]; “binds” in data set [1] (5' biotin, PEG(C18) spacer for SPR, no spacer on column in examples 8-A and 9, aptamer immobilized, 50 mM Tris, 50 mM NaCl, 10 mM CaCl2, 4 mM MgCl2, pH 7.4, eluted by EDTA, label: biotin); “binds” in data set [8]; “binds” in data set [5] (PEG(C18) spacer for SPR, no spacer on column in examples 8-A and 9, 50 mM Tris, 50 mM NaCl, 10 mM CaCl2, 4 mM MgCl2, pH 7.4); “binds” in [9].
For “TCGCACATGACATGAAGTTAAACGCGAATTACAAACCCAGCCCCC [core sequence SEQ ID 12]”, the binding result in [1] (setting [10]) is “binds”.
